Assay in all cases: co-IP
In assay [1] the target is alpha-centractin (human (endogenous in HEK293)) (UniProt P61163).
The target of assay [2] is T1, myristoylated alanine-rich C kinase substrate-like protein 1 (human (endogenous in HEK293)) (UniProt P49006).
T1 sequence: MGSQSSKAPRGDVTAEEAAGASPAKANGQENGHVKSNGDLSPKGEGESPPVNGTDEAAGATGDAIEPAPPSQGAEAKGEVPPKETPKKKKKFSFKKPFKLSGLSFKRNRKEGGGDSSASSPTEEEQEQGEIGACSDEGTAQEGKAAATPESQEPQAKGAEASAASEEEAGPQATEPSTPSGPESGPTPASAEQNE

Chains of the proteins cited; added tags and fusions are not shown. Residues count along the entry.
UniProt P61163, whole entry: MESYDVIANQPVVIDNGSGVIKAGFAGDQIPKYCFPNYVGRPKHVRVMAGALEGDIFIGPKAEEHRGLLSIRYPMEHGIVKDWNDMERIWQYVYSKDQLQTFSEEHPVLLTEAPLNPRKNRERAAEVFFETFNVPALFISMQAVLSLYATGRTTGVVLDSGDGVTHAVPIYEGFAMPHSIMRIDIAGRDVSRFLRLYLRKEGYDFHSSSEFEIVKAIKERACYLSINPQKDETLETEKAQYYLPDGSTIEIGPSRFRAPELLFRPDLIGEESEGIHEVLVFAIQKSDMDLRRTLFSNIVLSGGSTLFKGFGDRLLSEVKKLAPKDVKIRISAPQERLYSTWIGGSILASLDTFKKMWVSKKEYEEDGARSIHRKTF
UniProt O60603, 21-784: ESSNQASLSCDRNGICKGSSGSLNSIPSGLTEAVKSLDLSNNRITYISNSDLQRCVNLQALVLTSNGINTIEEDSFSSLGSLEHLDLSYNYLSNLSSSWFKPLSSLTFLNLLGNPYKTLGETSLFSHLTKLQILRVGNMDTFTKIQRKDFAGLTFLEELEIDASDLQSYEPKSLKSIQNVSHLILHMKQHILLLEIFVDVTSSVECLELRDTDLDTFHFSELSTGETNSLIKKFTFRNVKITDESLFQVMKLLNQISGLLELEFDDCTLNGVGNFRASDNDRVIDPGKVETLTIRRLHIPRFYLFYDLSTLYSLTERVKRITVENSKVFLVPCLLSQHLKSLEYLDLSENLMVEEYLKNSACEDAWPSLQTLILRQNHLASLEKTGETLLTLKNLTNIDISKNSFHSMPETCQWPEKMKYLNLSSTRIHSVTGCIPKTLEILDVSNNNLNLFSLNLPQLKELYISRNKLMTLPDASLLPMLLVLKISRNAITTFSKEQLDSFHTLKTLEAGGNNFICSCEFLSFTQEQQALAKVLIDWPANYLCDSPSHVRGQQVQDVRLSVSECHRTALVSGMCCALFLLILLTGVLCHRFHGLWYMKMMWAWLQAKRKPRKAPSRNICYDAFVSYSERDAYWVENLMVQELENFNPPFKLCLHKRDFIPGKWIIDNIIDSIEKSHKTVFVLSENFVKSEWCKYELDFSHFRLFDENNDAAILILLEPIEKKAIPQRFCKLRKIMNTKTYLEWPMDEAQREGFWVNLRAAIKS

The target of assay [3] is HA-tagged human Toll-like receptor 2 (human) (UniProt O60603).

No constants are given. Whether binding was seen depends on the method and setting. In cells and extracts the contact can be indirect. Some results given as binding are weak or reduced against the parent protein; the word gives no strength.

In the case of “HA-tagged human Toll-like receptor 2 (from UniProt O60603 21-784)”, the binding entry in assay [1] and in assay [2] was “binds” throughout. Take “alpha-centractin (from UniProt P61163 1-376)”: the binding result in assay [3] is “binds”.
